This is an account of results in article doi:10.64898/2025.12.15.694324.

The target in this test is T1, GFP-tagged PARP15^FL H559Y (human) (UniProt Q460N3).
T1 sequence: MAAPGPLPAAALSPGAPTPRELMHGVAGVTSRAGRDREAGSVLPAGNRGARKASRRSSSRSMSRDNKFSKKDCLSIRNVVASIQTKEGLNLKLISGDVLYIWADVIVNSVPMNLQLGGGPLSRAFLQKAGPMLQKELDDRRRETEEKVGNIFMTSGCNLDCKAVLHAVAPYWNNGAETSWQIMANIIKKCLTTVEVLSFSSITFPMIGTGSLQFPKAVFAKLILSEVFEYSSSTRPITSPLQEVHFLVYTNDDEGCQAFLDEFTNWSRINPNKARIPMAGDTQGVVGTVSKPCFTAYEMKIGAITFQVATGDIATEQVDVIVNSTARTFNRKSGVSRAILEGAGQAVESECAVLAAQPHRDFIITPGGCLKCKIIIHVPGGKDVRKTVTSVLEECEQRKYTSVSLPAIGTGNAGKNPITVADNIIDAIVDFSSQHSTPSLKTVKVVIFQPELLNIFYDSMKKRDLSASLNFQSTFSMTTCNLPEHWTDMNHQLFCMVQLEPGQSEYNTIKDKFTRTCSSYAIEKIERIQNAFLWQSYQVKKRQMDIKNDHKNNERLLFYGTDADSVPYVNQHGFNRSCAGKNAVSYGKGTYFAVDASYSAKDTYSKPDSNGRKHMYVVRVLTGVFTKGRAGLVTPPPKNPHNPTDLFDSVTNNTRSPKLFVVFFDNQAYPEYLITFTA
Put plainly: co-IP.

Numbering of substitutions follows the chain as printed. Names and notes keep the numbering of the source. No constants are given. Whether binding was seen depends on the method and setting. Binding seen in cells or lysates may run through a third protein. Some results given as binding are weak or reduced against the parent protein; the word gives no strength. Where a sequence is shown, tags or fusion partners need not be part of it.

B1: HA-tagged PARP15^FL H559Y (enzyme, UniProt Q460N3 1-678)
chain: T1 sequence
For the molecule B1, the binding entry is “binds”.

B2: HA-PARP15^FL H559Y D665R (enzyme, UniProt Q460N3 1-678)
chain: T1 sequence with D665R
As for B2, the binding result is listed as “no binding”.
